{
  "sequences": {"note": "The chains behind the UniProt entries cited, without tags or fusion partners.", "UniProt Q0JBA9, entry or part of it": "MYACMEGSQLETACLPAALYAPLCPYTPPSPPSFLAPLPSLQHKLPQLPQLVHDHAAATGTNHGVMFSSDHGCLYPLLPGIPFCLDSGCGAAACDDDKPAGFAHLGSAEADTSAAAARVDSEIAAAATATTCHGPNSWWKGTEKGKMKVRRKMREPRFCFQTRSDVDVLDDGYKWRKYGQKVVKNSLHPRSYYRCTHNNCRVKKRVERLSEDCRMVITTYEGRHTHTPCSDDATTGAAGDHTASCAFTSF"},
  "source": "paper PMC7819943",
  "about": "“Rice protein-binding microarrays: a tool to detect cis-acting elements near promoter regions in rice”",
  "note": "The other results are listed elsewhere or left out.",
  "data": [
    {"molecular_target": "OsWRKY34 (Oryza sativa, UniProt Q0JBA9 1-250)", "test": "protein-binding microarray (RPBM); PBS, 2% BSA, 51.3 ng/ul salmon testes DNA, 50 uM zinc acetate, 200 nM TF, 25 C, 1 h; high values mean tight binding", "settings": "protein: recombinant; tags: N-terminal polyhistidine and DsRed monomer fusion (pET32a); label: CyDye5-dUTP incorporated in the synthesized complementary strand; 3' TTTTT single-stranded linker to array surface; dsDNA, one strand shown", "outline": "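An Axon 4000B scanner gave the binding signal as per-feature fluorescence intensity in arbitrary units. This followed washing of a custom Agilent array that had been incubated for 1 h at 25 °C with 200 nM protein in PBS, 2% BSA, salmon testes DNA and 50 µM zinc acetate. The proteins were transcription factors fused at the N-terminus to polyhistidine and DsRed, expressed in E. coli BL21-CodonPlus and purified on Ni–NTA.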", "values": [
      {"sequence": "TTTTTCACCATTTTACCACTACTGCTGCCTCACGCAGTCACGGAGTCACCTAGTGCAG", "binding signal": "8080 fluorescence intensity (a.u.)"},
      {"sequence": "CAAACTCGCATCGTTTCCATTCCCGCCATTCCAACAAACTCGGAGTCACCTAGTGCAG", "binding signal": "11300 fluorescence intensity (a.u.)"},
      {"sequence": "TCCGTCCATCCTCACTATCATTAGTACTACTGGTTCTTCTCGGAGTCACCTAGTGCAG", "binding signal": "12200 fluorescence intensity (a.u.)"},
      {"sequence": "TTTATTCTCTGTTCCTCTTTTTTTCATATTCGTTTTTCACCGGAGTCACCTAGTGCAG", "binding signal": "13200 fluorescence intensity (a.u.)"},
      {"sequence": "AATCTCTTATTATTCTCGCCATGTTTAGTTCCAAAGTTTTCGGAGTCACCTAGTGCAG", "binding signal": "14100 fluorescence intensity (a.u.)"},
      {"sequence": "CGATTCCGCAAGGCGCCGGCAACTCAACCCCAGCCAGATCCGGAGTCACCTAGTGCAG", "binding signal": "9100 fluorescence intensity (a.u.)"},
      {"sequence": "CAGGACCAGACCATCAGCGCCACATCCCGACACGAAACCGCGGAGTCACCTAGTGCAG", "binding signal": "8490 fluorescence intensity (a.u.)"},
      {"sequence": "GATAGGGTTAGGGATGGATAGGGTTTCCTTGAGGGTAGTTCGGAGTCACCTAGTGCAG", "binding signal": "16400 fluorescence intensity (a.u.)"},
      {"sequence": "AGTACCATTTGTTTCGCTGTGGATTTTATTTTATTATTAACGGAGTCACCTAGTGCAG", "binding signal": "8530 fluorescence intensity (a.u.)"},
      {"sequence": "ATGATAGAGCTTGTTTCCGACCGTATTCGATTCGTTTTCACGGAGTCACCTAGTGCAG", "binding signal": "8690 fluorescence intensity (a.u.)"},
      {"sequence": "AGGGCGTGTGTTTCGCGTGGGTTTCGTGGTGGTTGCTGGGCGGAGTCACCTAGTGCAG", "binding signal": "10900 fluorescence intensity (a.u.)"},
      {"sequence": "GGTGATTTTAGCTGACGTAGCGCCTATATGTATGTTTTGACGGAGTCACCTAGTGCAG", "binding signal": "8140 fluorescence intensity (a.u.)"},
      {"sequence": "AAGCTTTTTTTTTCTACATCTGAGACGTTCGCCGGAGATGCGGAGTCACCTAGTGCAG", "binding signal": "8700 fluorescence intensity (a.u.)"},
      {"sequence": "AAATTCAAACTAGTTTCTACATAGCCTCTTTTCTCTATTTCGGAGTCACCTAGTGCAG", "binding signal": "10900 fluorescence intensity (a.u.)"},
      {"sequence": "ACTTATTCTGGGGCGGAGGCTAGAGGGTGTAGTGTAGGACCGGAGTCACCTAGTGCAG", "binding signal": "13100 fluorescence intensity (a.u.)"},
      {"sequence": "TATTTCTAAATTGTATTTCTATATGGACTTTATTTTTCTTCGGAGTCACCTAGTGCAG", "binding signal": "8830 fluorescence intensity (a.u.)"},
      {"sequence": "TAATTTGCATCGTCCGTTTGGTCTTGAGCGACGTCGCCAACGGAGTCACCTAGTGCAG", "binding signal": "11000 fluorescence intensity (a.u.)"},
      {"sequence": "GTAGCTTCTTCTGGCTTTTCTTCAGCAGCTCACGTAACCACGGAGTCACCTAGTGCAG", "binding signal": "12400 fluorescence intensity (a.u.)"},
      {"sequence": "TTTGCTTTGTTGGAAAATATTCTCGTTTCCAATGTCCTTTCGGAGTCACCTAGTGCAG", "binding signal": "8090 fluorescence intensity (a.u.)"},
      {"sequence": "TTTGTCCGTTTGAGTTTATTTTTTATACGGTTGGTTCCTACGGAGTCACCTAGTGCAG", "binding signal": "12300 fluorescence intensity (a.u.)"},
      {"sequence": "ACCCCAAGTAAAAGCCGCACACTCTCATCACTATCCCTCCCGGAGTCACCTAGTGCAG", "binding signal": "8390 fluorescence intensity (a.u.)"},
      {"sequence": "TCTTGTCTTTCTCTTTGTTGCTTGATTGTCTTCCCCTGGACGGAGTCACCTAGTGCAG", "binding signal": "8500 fluorescence intensity (a.u.)"},
      {"sequence": "ATCAGTTTTTATCGCTTTGATCACAATGATTCGGGTTATACGGAGTCACCTAGTGCAG", "binding signal": "9710 fluorescence intensity (a.u.)"},
      {"sequence": "GAAAAATGGGCTGAGTTGACTCTTAATAATTTGCTCTAGTCGGAGTCACCTAGTGCAG", "binding signal": "8330 fluorescence intensity (a.u.)"},
      {"sequence": "CGGGCGGCGGCGGTCGGGAGGGGCTTGGCGATGATGGTGACGGAGTCACCTAGTGCAG", "binding signal": "12200 fluorescence intensity (a.u.)"},
      {"sequence": "ATATTCCATCTATTTTACGGTAAATATTTTTCTTTTTTTACGGAGTCACCTAGTGCAG", "binding signal": "9080 fluorescence intensity (a.u.)"},
      {"sequence": "GCTCTCTATTTTTTTTTTCTGCGGAATGATTTCATTTTGACGGAGTCACCTAGTGCAG", "binding signal": "11900 fluorescence intensity (a.u.)"},
      {"sequence": "TTATGCCTTTGCAAACTGCAACCTCCGCTAATCATTCATGCGGAGTCACCTAGTGCAG", "binding signal": "8460 fluorescence intensity (a.u.)"},
      {"sequence": "TCTGCCGCCACCATCACCGCACCTCGCCACCGTCGCAACACGGAGTCACCTAGTGCAG", "binding signal": "9520 fluorescence intensity (a.u.)"},
      {"sequence": "ATGTGTTTTTTGTTCGATGCATCTTCTCTTCTTTGTGTTACGGAGTCACCTAGTGCAG", "binding signal": "12600 fluorescence intensity (a.u.)"},
      {"sequence": "CCGTCCGTCTTATTTAAAAATTTTTATGATTAATATTTTTCGGAGTCACCTAGTGCAG", "binding signal": "9120 fluorescence intensity (a.u.)"},
      {"sequence": "CCGCAAGTACGCTTTTTTCTGCAGGCTCATCAATCCATGCCGGAGTCACCTAGTGCAG", "binding signal": "10200 fluorescence intensity (a.u.)"},
      {"sequence": "CTTCCCATTTCCATCTCCGTCGAGCACCCAGCCCCTTCCTCGGAGTCACCTAGTGCAG", "binding signal": "8900 fluorescence intensity (a.u.)"},
      {"sequence": "ATGTACGCGTCACTAAATTTTGTTGCTCCCTGTCGTCACTCGGAGTCACCTAGTGCAG", "binding signal": "8500 fluorescence intensity (a.u.)"},
      {"sequence": "GAAAACTGTTTACTACGTCCCGTATACGGCTGGTCCGTTTCGGAGTCACCTAGTGCAG", "binding signal": "8110 fluorescence intensity (a.u.)"},
      {"sequence": "GTGGACAACCCACCTGCTGTAGTACGCATTTCCATCTCCTCGGAGTCACCTAGTGCAG", "binding signal": "8970 fluorescence intensity (a.u.)"},
      {"sequence": "GATTCTAGTCAAATTTCTTTTAATTTTGACTACGTTTATACGGAGTCACCTAGTGCAG", "binding signal": "11200 fluorescence intensity (a.u.)"},
      {"sequence": "TTTCTCAAAATCTATGTGTCTAGCCGGTTTTTACCGGTTCCGGAGTCACCTAGTGCAG", "binding signal": "8550 fluorescence intensity (a.u.)"},
      {"sequence": "TCTCCGCCGCAACCACCGGCACCACTCACGCATTGGAAAGCGGAGTCACCTAGTGCAG", "binding signal": "9830 fluorescence intensity (a.u.)"},
      {"sequence": "TCCACCCGCCGTCAATGACTTTCCTGAACAACTGATCCGCCGGAGTCACCTAGTGCAG", "binding signal": "9460 fluorescence intensity (a.u.)"},
      {"sequence": "ATCGGATTTCTTCTTCTACCTCTAGCTAGCTCCGATCCGTCGGAGTCACCTAGTGCAG", "binding signal": "9900 fluorescence intensity (a.u.)"},
      {"sequence": "CACTCGGCTCGGCTTAGCCCCGTTGTCACTCGGCTCGTTTCGGAGTCACCTAGTGCAG", "binding signal": "12100 fluorescence intensity (a.u.)"}
    ]}
  ]
}
